Reference: PMC11251167
These are yes or no findings as the source states them, for the method shown. Binding seen in cells or lysates may run through a third protein. These calls come from enrichment with a bait or labelling near it, and not all partners need be listed.

The chains behind the UniProt entries cited, without tags or fusion partners.
UniProt Q9CWV1: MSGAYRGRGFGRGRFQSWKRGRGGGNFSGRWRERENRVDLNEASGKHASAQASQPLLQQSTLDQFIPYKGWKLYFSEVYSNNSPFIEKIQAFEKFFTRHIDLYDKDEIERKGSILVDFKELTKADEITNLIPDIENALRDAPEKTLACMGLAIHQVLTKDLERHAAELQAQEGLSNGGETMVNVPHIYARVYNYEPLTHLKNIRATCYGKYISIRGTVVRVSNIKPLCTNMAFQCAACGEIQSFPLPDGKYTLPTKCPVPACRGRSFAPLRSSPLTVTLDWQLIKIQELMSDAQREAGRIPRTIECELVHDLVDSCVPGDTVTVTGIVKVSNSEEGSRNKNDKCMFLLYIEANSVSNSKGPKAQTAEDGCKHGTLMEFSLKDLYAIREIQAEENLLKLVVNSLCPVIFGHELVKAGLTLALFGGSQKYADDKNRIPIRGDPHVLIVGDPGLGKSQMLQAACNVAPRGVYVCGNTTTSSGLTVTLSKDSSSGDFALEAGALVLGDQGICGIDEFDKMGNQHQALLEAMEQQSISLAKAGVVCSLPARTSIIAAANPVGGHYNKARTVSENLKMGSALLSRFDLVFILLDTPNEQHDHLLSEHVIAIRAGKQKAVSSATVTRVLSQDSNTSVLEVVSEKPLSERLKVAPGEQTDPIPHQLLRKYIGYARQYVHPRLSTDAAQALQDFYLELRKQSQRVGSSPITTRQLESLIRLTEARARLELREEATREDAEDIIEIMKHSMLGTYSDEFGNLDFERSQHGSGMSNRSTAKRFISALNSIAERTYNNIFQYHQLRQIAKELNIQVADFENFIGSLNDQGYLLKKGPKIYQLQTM
UniProt O70133: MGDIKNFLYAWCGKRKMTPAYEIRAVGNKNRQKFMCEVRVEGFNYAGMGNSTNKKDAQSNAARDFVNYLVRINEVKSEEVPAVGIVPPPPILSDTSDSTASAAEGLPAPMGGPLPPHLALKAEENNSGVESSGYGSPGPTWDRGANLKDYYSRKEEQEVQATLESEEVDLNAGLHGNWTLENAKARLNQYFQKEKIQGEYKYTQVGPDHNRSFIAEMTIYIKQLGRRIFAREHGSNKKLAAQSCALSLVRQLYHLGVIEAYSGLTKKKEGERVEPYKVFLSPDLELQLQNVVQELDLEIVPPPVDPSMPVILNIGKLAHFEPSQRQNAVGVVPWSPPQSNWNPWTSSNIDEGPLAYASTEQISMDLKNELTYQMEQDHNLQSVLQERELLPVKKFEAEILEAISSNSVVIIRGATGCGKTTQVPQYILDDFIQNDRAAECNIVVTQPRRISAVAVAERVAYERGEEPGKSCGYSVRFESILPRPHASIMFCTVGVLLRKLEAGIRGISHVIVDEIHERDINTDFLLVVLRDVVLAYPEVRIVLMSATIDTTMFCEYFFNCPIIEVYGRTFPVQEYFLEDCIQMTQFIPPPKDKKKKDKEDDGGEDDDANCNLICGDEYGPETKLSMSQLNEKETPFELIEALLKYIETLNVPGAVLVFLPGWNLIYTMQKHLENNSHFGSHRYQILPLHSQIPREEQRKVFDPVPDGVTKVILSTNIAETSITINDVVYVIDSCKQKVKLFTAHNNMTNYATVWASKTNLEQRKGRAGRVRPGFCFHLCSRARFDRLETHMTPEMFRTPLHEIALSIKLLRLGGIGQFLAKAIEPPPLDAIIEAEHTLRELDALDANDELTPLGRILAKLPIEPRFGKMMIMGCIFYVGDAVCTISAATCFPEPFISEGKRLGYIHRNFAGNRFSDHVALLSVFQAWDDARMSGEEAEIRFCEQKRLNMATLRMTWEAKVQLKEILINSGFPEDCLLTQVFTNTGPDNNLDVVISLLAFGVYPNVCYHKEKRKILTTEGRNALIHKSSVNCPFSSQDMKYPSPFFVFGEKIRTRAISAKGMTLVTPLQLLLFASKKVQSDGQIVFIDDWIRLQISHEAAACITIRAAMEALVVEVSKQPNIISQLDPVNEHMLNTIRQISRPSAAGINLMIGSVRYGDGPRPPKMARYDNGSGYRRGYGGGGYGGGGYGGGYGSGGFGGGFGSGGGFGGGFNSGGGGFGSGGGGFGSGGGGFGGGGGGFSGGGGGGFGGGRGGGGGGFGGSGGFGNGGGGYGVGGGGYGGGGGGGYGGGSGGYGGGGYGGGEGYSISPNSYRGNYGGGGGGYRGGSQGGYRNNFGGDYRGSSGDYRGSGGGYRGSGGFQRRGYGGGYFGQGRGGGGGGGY

Target: MCM8 (Minichromosome Maintenance 8 Homologous Recombination Repair Factor), mouse, endogenous (mouse (endogenous in P19 cells and E12.5 PGCs)) (UniProt Q9CWV1)
Assay: affinity purification with mass spectrometry; anti-MCM8 antibody IP from P19 cell lysate, IgG IP as control; in-gel digestion, LC-MS/MS

binding: binds
Substance: DHX9, mouse, endogenous (from UniProt O70133 1-1380)
